## Percent effect of library compounds

Amino acid sequences for entries named in this document (tags omitted). Residues count along the entry.
UniProt Q8IDJ8, 1-583: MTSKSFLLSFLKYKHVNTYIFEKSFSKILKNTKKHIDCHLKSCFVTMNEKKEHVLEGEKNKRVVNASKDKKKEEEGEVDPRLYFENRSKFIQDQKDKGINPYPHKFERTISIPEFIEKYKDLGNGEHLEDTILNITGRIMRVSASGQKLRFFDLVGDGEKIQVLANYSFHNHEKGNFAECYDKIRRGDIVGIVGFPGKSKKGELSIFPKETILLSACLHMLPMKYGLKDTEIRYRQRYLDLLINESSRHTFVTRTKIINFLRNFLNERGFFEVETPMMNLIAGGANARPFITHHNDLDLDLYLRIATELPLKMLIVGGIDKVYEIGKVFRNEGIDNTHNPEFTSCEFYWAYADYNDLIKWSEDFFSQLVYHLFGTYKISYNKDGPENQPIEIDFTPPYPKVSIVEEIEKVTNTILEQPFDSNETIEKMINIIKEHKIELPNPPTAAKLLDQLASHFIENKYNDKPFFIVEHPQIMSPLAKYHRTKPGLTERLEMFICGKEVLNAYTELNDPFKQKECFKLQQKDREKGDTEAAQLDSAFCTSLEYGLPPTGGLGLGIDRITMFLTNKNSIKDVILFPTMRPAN
UniProt P9WPC5, whole entry: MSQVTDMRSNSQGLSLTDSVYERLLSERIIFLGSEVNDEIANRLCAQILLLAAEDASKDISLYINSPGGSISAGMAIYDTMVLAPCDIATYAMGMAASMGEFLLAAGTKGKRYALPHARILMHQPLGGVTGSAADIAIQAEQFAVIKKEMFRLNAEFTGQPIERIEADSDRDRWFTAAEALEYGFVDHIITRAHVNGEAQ
UniProt P9WPC3, whole entry partner: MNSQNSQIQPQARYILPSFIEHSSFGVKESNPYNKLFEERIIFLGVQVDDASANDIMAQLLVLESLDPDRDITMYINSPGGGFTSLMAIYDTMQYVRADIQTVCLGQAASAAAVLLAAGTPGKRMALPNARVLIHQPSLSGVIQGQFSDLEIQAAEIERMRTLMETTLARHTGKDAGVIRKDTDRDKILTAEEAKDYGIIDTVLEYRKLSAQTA

Results are given as percent effect. The record does not define 0% and 100%; most values in the screen are far below 50% and negative numbers occur (in some assays of this library far below -100). The compounds are a random part of those screened.

A: 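Lysine-tRNA ligase, Plasmodium falciparum 3D7 (UniProt Q8IDJ8). Enzyme assay of the cytosolic lysyl-tRNA synthetase in 384-well plates, read by luminescence. Concentration: 30 µM. Direction is inferred from only a few compounds that gave an IC50; most scored high, so higher reads as stronger inhibition. Of about 69,000 compounds tested this way, about 49 (0.071%) reached 50% or more in at least one test.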
B: 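ClpP1P2, Mycobacterium tuberculosis (UniProt P9WPC5 and UniProt P9WPC3). Protease assay of ClpP1P2, read by the AMC dye that it sets free. Tested at 50 µM. Higher reads as stronger inhibition, judged from the few compounds that gave an IC50. Most other retested compounds had strongly negative values. Size under these conditions: about 69,000 compounds, about 10 of them at 50% or above in at least one test.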

| structure | A | B |
|---|---|---|
| `CSCC[C@@H](CO)Nc1nc(-c2ccccn2)nc2c1c(C)nn2C` | 3.754% | -5.399% |
| `CC(=O)N[C@@H]1CN(C2CCN(c3cccc(C)c3C)CC2)C[C@H]1C(C)C` | 7.568% | 2.783% |
| `CCC(=O)N(CC(N)=O)Cc1cccc(Oc2ccccc2)c1` | 5.374% | -1.215% |
| `Cc1ccccc1-c1cccc(CN2C[C@H]3C(=O)NC[C@@]3(C(=O)O)C2)c1` | -2.498% | -2.18% |
| `CC(C)c1cc(C(=O)N(C)Cc2cccc3ncccc23)n(C)n1` | 7.531% | -3.289% |
| `CCOCc1cccc(NC(=O)C2COCCO2)c1` (stereo not given) | 6.916% | -7.789% |
| `CCn1ccc(NC(=O)C2CCC(=O)N2Cc2ccc(C)o2)n1` (stereo not given) | 1.502% | 15.09% |
| `CCC(CNC(=O)c1ccco1)N1CCc2ccccc2C1` (stereo not given) | 7.929% | 7.153% |
| `COCC(O)CNC(=O)Nc1ccc(Cl)cc1-n1cccc1` (stereo not given) | 1.701% | -6.568% |
| `CSCc1noc(CN2CCC3(CC2)CC(=O)N(CC=C(C)C)C3)n1` | 4.605% | 1.104% |
| `O=C(c1ccc2c(c1)COC2)N1CCN(CCO)CC1` | 0.5525% | -13.94% |
| `CC(=O)N1C[C@H](NS(=O)(=O)N2CCCC2)[C@@H](c2ccc(C)o2)C1` | 1.811% | 2.588% |
| `Cc1nc(N2CCN(C(=O)c3ccco3)CC2)c2c(n1)c(C)nn2C` | 1.037% | 4.509% |
| `Nc1ccnc(CNc2cc(F)ccc2OCC2CCCO2)n1` (stereo not given) | 0.7634% | -4.798% |
| `NCc1n[nH]c(=O)n1-c1ccccc1Oc1ccccc1` | 2.552% | -7.452% |
| `CCOc1cc([C@H]2N[C@@H](c3nc(C)cs3)Cc3ccsc32)ccc1OC` | 0.2689% | -18.93% |
| `COc1ccc(C(=O)NCC(c2cccn2C)N2CCCC2)cc1OC` (stereo not given) | 0.3385% | 9.138% |
| `COCCNC(C)c1ccc(-c2cccnc2)cc1` (stereo not given) | 2.539% | 13.43% |
| `C1=CCN(c2nc(CC3CC3)nc3c2CCN(C2CCOCC2)CC3)C1` | 1.88% | -18.64% |
| `CN(C)[C@@H]1CN(Cc2ccco2)C[C@@H]2CCCO[C@@H]21` | 10.16% | -5.977% |
| `CCOc1ccc(N(CC(=O)c2ccccc2)C2=NCCCCC2)cc1` | -1.73% | -0.43% |
| `CN(C)CCN(Cc1ccc(F)cc1)C(=O)c1ccn(C)c(=O)c1` | -0.02472% | -8.23% |
| `CCCc1ccc(C(=O)N2CCn3c(nnc3C(C)C)C2)cc1` | 4.484% | -17.9% |
| `CCOc1ccc(NC2CCN(C)C2=O)cn1` (stereo not given) | 8.893% | -6.909% |
| `CCc1nc(NCCc2nc(C)c(C)s2)c2cnn(C)c2n1` | 0.1777% | -10.54% |
| `Cc1ccc(-c2nc(CN3CCCC3Cn3cncn3)co2)cc1` (stereo not given) | -0.02812% | -26.9% |
| `NCC(c1ccccc1)N1CCc2sccc2C1` (stereo not given) | 4.794% | 8.785% |
| `COC(=O)CCNC(=O)c1nc(NS(=O)(=O)c2ccccc2)sc1C` | 2.056% | -2.321% |
| `CC(C)CC(=O)N1CC(=O)c2sc(Nc3ccc(C#N)cc3)nc2C1` | 3.009% | 2.387% |
| `Cn1cc(CN2CCN(CC3(c4ccccc4)CC3)CC2)cn1` | 3.028% | -8.731% |
| `Cc1ccc(S(=O)(=O)N2C[C@H]3C[C@H](NC(=O)c4cscn4)[C@H]3C2)cc1` | 1.696% | -8.563% |
| `CN(C)CC(=O)NC1CC(=O)N(CCc2ccccc2)C1` (stereo not given) | 1.509% | -7.253% |
| `CC(C)c1n[nH]c(C(=O)Nc2ccncc2)c1Br` | 7.81% | -11.72% |
| `CCN(CC1CN(Cc2cccc(C#N)c2)CCO1)c1cccnn1` (stereo not given) | 2.745% | -8.798% |
| `CC(=O)NCCNC(=O)c1cnc(C(C)(C)C)s1` | 1.411% | -25.99% |
| `c1ccc2[nH]c(C3CCN(Cc4nnc(C5CC5)o4)CC3)nc2c1` | 6.086% | -5.098% |
| `COc1cccc(OCC2CCCN(C(=O)c3cnc(C)nc3O)C2)c1` (stereo not given) | 0.9482% | -8.136% |
| `Cc1nn(C)c(C)c1CNCc1ccnc(N2CCOCC2)c1` | -3.073% | -1.855% |
| `CS(=O)(=O)N1CCN(c2ccnc(N3CCCC3)n2)CC1` | 3.62% | -5.235% |
| `Cc1ccc(OCCNC(=O)C(C)n2cncn2)cc1` (stereo not given) | 4.752% | 9.032% |
| `CCc1cnc(N2C[C@H]3CCCC(N(C)Cc4ccccn4)[C@H]3C2)nc1` (stereo not given in full) | -0.4235% | -2.907% |
| `CN(Cc1ccco1)Cc1ccccc1CNC(=O)c1csnn1` | 4.629% | -8.302% |
| `CCCN(Cc1ccccn1)Cc1ccccc1OC` | 6.402% | 2.688% |
| `Cc1nccn1C1CCCN(C(=O)CCc2nc(C(C)C)no2)C1` (stereo not given) | 4.209% | -6.681% |
| `Cc1cc(C)n(CC2CCCCN2C(=O)c2sccc2C#N)n1` (stereo not given) | 4.817% | -25.25% |
| `Cc1nc2cc(CNC(=O)C3CC(=O)N(CCN(C)C)C3)ccc2n1C` (stereo not given) | -1.172% | -9.944% |
| `CN1CCC(N(Cc2ccccc2)C(=O)c2ccn3ccnc3c2)CC1` | 6.382% | 3.533% |
| `Cc1nn(C)c(N2CCOCC2)c1CNCc1ccc(Cl)s1` | 5.863% | 6.299% |
| `CC(=O)c1cccc(OCCCC(=O)N(C)CC(N)=O)c1` | 6.107% | -4.134% |
| `CN(C)CCNC(=O)c1nc2c(o1)CN(c1ncccn1)C2` | 5.81% | -0.519% |
| `CC(C)(CN1CCC2(CCOCC2)CC1)N1CCOCC1` | 0.213% | -5.373% |
| `COCCCN1CCN([C@@H]2c3ccccc3C3(CCNCC3)[C@H]2O)CC1` | 1.703% | -3.095% |
| `CS(=O)(=O)NCCN1CCCC1c1ccc(Cl)cc1` (stereo not given) | 0.8287% | -9.285% |
| `c1ccc(CN2CCc3ncnc(-c4cccnc4)c3CC2)nc1` | 1.811% | -2.433% |
| `Cc1cc(F)ccc1N1CCCC(NC(=O)CCCn2ccnc2)C1` (stereo not given) | 1.631% | -9.986% |
| `Cc1ccc(C(=O)NC2CCN(Cc3nc(C(C)C)no3)CC2)s1` | 4.883% | -23.38% |
| `COCc1ncn2c1CN(S(=O)(=O)c1cccs1)CCC2` | 8.347% | 9.957% |
| `O=C(Nc1cccc(CN2CCOC2=O)c1)N1CCCCCC1` | -6.56% | -6.498% |

Repeated from the top, 5 entries:

{"structure": "CSCC[C@@H](CO)Nc1nc(-c2ccccn2)nc2c1c(C)nn2C", "A": 3.754, "B": -5.399}
{"structure": "CC(=O)N[C@@H]1CN(C2CCN(c3cccc(C)c3C)CC2)C[C@H]1C(C)C", "A": 7.568, "B": 2.783}
{"structure": "CCC(=O)N(CC(N)=O)Cc1cccc(Oc2ccccc2)c1", "A": 5.374, "B": -1.215}
{"structure": "Cc1ccccc1-c1cccc(CN2C[C@H]3C(=O)NC[C@@]3(C(=O)O)C2)c1", "A": -2.498, "B": -2.18}
{"structure": "CC(C)c1cc(C(=O)N(C)Cc2cccc3ncccc23)n(C)n1", "A": 7.531, "B": -3.289}

From ChEMBL document CHEMBL3988442, “University of Dundee, Small-Polar-MMV Screening Library” (2021).